Test results reported in patent US20210002619A1.
Results are given in words; binding and its absence hold for the method and conditions named. Binding seen in cells or lysates may run through a third protein. Some binding calls cover weakened binding; strength is not graded here.

Sequences of proteins named here, by UniProt entry; tags and fusion partners are left off. A change or cut given only in a name is not applied to a line headed by its entry.
UniProt P24385: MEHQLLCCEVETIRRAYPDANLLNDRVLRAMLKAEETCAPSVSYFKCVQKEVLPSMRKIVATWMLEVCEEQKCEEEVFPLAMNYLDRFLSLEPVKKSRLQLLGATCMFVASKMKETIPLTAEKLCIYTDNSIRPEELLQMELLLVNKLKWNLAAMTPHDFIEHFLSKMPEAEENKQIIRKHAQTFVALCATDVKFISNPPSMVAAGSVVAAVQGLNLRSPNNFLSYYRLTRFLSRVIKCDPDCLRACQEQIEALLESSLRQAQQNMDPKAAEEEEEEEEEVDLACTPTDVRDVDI
UniProt P11802: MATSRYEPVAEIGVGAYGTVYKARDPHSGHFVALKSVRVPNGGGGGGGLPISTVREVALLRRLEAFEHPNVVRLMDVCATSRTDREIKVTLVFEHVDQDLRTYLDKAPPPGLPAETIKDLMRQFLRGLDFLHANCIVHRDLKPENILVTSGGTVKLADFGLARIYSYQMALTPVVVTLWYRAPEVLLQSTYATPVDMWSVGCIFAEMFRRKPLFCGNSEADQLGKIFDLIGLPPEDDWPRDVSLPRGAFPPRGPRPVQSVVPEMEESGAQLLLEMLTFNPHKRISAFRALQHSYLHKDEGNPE
UniProt P46527: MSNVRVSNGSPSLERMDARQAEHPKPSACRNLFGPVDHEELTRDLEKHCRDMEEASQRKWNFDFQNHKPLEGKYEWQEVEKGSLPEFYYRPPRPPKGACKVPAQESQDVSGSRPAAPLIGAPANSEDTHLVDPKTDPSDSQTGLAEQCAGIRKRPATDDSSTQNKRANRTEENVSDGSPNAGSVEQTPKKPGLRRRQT

Key:
[1] = target: CycD1 variant (amino acids 19-267 of full-length wild-type CycD1) (Homo sapiens (Human)) (UniProt P24385); experiment: co-expression in Sf9 cells; untagged CycD1 co-purified with GST-Cdk4 by GST affinity and anion exchange chromatography
[2] = target: Cdk4-CycD1 dimeric complex of Examples 1 and 2 (Cdk4 variant SEQ ID NO: 48 and CycD1 variant SEQ ID NO: 56) (human) (UniProt P11802); experiment: co-expression in Sf9 cells; co-purification by GST affinity and anion exchange chromatography

Human Cdk4 variant (T172E, amino acids 44 to 46 deleted, G43E and G47E) (from UniProt P11802 2-303) (enzyme)
binding [1]: binds

Engineered p27 (amino acids 25-98 of p27 with Y74E) (from UniProt P46527 25-98)
binding [2]: binds
